The other results are listed elsewhere or left out.

By UniProt entry, the sequences of proteins in these tests, tags left out. Where a name states a change or a piece, a line headed by the entry shows the natural chain unless it says otherwise.
UniProt Q9P2K6: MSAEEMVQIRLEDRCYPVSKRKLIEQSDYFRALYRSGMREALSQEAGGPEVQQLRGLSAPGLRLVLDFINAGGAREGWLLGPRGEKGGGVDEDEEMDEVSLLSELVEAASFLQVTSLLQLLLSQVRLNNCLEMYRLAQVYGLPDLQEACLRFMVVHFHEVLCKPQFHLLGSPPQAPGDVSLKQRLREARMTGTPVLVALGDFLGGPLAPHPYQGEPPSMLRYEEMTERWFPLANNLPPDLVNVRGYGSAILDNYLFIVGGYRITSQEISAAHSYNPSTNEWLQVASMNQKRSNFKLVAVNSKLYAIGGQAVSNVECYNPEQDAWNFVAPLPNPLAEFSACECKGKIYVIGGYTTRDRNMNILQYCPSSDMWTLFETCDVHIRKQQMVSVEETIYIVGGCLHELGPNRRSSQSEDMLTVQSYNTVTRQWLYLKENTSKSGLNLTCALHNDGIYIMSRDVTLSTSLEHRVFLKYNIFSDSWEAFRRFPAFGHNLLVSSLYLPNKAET
UniProt Q8WVZ9: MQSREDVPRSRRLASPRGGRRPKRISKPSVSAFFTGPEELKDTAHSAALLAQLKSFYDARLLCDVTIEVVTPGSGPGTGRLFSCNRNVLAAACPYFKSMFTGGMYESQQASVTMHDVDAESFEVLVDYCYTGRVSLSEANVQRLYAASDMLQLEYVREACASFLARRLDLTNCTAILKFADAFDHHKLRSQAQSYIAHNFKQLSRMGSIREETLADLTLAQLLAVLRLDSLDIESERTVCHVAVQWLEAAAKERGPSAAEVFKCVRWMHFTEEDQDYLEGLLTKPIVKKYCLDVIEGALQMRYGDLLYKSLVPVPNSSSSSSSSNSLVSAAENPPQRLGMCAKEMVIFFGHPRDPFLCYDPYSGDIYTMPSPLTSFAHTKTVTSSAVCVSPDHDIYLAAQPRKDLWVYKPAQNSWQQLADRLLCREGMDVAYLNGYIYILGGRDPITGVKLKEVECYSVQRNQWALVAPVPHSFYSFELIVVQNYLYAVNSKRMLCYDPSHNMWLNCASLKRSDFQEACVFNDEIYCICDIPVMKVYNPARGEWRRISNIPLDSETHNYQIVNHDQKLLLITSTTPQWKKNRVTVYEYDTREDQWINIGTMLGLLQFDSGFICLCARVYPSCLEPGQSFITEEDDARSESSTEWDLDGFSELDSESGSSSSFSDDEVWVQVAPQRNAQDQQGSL
UniProt Q9Y2M5: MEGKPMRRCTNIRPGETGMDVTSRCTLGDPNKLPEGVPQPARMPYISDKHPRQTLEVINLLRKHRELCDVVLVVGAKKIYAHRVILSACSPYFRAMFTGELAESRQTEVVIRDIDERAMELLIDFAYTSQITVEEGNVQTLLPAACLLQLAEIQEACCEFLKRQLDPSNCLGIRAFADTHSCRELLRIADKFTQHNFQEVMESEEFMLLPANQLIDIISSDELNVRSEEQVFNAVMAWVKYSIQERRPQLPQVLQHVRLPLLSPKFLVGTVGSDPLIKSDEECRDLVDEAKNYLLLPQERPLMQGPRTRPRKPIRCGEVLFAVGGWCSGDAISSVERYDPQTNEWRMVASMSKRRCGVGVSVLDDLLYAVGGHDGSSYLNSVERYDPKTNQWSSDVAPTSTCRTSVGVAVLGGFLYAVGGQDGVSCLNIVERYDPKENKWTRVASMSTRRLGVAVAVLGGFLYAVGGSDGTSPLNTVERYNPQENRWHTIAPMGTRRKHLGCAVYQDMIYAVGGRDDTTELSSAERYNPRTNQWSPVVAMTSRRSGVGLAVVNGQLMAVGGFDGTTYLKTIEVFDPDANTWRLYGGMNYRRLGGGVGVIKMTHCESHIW
UniProt Q8N4N3: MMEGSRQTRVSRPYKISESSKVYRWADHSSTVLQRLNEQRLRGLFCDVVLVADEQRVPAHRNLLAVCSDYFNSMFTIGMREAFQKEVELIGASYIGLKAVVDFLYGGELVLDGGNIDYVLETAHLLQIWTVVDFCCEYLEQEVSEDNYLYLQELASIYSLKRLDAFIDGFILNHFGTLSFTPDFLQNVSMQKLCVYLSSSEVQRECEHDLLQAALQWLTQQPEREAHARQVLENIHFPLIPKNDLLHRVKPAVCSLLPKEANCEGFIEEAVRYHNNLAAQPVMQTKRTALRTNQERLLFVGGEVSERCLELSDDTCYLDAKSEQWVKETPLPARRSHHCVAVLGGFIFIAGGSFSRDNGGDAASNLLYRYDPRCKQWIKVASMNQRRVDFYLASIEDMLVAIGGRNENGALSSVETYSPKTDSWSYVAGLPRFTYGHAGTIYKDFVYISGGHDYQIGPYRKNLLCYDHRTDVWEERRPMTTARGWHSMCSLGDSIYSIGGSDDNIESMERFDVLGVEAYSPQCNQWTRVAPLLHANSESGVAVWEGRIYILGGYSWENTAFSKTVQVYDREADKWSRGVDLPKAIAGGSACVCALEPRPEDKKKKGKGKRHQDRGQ
UniProt Q719H9: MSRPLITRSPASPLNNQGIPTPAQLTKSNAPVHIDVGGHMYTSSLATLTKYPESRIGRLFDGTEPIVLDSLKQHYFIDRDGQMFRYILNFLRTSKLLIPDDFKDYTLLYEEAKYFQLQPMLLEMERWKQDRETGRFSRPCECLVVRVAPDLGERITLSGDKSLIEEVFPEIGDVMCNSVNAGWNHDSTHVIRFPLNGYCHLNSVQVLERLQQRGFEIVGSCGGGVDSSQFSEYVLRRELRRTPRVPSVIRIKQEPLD
UniProt Q9Y2U9: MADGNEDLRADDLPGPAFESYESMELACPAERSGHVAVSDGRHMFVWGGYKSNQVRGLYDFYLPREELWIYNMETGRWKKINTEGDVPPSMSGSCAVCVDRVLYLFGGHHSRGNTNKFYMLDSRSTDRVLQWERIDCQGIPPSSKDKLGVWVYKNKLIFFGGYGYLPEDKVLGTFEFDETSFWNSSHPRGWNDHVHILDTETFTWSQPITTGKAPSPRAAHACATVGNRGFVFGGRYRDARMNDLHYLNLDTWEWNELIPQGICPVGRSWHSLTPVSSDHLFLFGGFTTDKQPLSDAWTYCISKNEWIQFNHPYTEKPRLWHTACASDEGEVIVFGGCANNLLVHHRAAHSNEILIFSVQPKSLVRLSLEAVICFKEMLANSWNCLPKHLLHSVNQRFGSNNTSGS
UniProt O75037: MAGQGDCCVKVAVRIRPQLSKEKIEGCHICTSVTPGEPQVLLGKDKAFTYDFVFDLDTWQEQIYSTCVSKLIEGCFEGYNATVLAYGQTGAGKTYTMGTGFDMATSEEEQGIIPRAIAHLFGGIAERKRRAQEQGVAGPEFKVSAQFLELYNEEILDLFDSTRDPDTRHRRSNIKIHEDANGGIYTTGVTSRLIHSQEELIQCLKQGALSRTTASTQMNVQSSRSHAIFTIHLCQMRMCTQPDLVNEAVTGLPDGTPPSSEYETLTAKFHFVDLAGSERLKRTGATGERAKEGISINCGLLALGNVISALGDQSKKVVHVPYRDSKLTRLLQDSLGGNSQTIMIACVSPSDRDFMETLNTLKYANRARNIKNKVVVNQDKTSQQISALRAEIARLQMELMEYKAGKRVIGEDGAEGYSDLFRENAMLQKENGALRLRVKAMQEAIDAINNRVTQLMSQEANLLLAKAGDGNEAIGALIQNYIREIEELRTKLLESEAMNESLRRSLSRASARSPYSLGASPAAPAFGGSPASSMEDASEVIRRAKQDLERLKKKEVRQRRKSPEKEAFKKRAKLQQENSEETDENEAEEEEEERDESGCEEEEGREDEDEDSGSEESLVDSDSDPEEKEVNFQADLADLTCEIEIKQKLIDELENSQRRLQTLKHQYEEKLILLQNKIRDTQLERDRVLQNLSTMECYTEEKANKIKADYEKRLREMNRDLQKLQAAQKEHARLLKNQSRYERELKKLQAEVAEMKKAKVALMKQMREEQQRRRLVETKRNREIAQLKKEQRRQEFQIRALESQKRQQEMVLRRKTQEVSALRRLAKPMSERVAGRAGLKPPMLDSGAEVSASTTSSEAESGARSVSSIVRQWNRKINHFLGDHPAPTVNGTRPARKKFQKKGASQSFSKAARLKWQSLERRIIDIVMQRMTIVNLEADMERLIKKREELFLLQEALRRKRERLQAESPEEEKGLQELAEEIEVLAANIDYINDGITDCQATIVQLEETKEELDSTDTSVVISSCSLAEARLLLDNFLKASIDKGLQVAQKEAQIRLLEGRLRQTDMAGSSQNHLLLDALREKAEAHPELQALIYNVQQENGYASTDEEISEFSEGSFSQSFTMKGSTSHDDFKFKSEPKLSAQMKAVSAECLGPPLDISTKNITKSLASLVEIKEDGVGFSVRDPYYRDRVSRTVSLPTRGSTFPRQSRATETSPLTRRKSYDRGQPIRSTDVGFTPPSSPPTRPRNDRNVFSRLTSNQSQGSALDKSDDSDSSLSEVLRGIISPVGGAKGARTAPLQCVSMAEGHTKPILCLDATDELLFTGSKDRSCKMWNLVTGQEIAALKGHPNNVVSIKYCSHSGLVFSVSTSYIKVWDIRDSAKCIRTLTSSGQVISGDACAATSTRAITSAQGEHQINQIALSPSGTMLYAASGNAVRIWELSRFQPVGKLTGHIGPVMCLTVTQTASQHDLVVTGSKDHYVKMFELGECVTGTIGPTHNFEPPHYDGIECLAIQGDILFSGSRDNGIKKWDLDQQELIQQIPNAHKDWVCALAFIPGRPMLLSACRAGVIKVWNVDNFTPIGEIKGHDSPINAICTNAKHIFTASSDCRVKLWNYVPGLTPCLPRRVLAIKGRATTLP
UniProt Q96S16: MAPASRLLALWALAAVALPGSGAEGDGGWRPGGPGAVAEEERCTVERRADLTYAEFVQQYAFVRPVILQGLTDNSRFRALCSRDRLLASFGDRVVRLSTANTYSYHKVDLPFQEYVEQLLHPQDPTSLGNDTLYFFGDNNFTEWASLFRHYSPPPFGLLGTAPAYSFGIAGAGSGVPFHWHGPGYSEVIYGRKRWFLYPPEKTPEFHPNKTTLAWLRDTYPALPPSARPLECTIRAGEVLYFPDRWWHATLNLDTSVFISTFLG
UniProt Q15053: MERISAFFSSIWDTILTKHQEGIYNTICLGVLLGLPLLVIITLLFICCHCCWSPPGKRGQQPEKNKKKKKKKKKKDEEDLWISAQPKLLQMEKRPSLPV
UniProt Q96L93: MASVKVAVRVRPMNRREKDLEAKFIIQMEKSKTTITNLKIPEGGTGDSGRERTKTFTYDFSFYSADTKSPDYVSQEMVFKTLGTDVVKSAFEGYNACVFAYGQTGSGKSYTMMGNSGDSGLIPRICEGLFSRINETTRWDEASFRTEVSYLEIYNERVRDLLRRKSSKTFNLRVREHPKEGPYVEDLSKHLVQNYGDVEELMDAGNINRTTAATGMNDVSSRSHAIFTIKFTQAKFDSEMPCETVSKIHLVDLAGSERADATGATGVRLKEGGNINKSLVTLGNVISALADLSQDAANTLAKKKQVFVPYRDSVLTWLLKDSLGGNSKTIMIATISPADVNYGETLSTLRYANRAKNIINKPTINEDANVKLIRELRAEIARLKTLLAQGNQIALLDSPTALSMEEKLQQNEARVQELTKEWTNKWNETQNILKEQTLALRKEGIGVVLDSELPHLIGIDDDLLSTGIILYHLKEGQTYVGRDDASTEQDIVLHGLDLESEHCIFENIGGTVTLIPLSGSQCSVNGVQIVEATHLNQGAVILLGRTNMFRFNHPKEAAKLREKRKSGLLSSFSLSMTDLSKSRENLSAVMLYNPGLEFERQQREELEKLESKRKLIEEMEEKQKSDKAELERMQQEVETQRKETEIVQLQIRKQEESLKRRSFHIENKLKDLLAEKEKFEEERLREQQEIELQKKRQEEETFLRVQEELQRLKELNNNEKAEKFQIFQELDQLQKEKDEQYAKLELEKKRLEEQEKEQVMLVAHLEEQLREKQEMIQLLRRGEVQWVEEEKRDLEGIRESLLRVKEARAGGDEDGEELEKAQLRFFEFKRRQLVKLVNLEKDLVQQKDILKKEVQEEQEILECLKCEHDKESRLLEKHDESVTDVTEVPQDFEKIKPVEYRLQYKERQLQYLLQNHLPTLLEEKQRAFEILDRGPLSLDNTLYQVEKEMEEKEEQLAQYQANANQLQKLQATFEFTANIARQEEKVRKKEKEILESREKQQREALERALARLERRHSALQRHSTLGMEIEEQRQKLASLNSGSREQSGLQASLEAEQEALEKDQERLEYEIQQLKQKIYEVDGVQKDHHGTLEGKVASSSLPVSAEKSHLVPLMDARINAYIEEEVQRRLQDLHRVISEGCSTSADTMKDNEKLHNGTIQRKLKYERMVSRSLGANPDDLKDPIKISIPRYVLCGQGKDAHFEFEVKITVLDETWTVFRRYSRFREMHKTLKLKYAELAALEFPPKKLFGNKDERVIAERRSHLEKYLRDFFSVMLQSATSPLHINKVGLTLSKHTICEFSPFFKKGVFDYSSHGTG

Compound in one assay: Cc1ccc(NC(=O)c2ccc(CN3CC[C@H](N(C)C)C3)c(C(F)(F)F)c2)cc1Nc1nccc(-c2cncnc2)n1 [bafetinib]
In words: log2 fold change, soluble protein after heating vs DMSO (PISA); higher = thermal stabilisation; K562 cells, 10 uM, 30 min; active = over 0.2 and 3.5 SD of the protein, either way, in both replicates (recomputed). Put shortly:
(§1)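 For each measurement, 10 μM compound was applied for 30 min to K562 cells at 2×10^6 cells/mL. Aliquots were heated for 3 min across 48°C-58°C, pooled, and extracted in PBS with 0.5% NP-40 at 4°C; the supernatant after 21,000xg for 90 min was soluble protein. This was quantified by TMTpro 16plex LC-MS/MS with channel sums equalised, and thermal stability was reported relative to control samples from duplicates, on a log2 fold-change scale.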
Turning to KIF14 (UniProt Q15058), the log2 fold change is inactive: -0.116.

Consider KIF1C (UniProt O43896), for which the log2 fold change is inactive: -0.094.

As for KLHL42 (UniProt Q9P2K6), the log2 fold change is inactive: -0.281.

As to KCNH2 (UniProt Q12809), the log2 fold change is inactive: 0.

With KIAA1755 (UniProt Q5JYT7), the log2 fold change was inactive: -0.054.

For the target KATNAL1 (UniProt Q9BW62), the log2 fold change was inactive: -0.047.

Compound in a further assay: Cc1cccc(CC(=O)N2CCc3c2ccc(-c2cn(C)c4ncnc(N)c24)c3F)n1
The description is as above. Put shortly:
as §1
For the target ITSN2 (UniProt Q9NZM3), the log2 fold change is inactive: -0.071.

Take KIZ (UniProt Q2M2Z5): the log2 fold change was inactive: 0.268.

As for KATNBL1 (UniProt Q9H079), the log2 fold change is inactive: -0.05.

As to KRR1 (UniProt Q13601), the log2 fold change was inactive: -0.028.

Consider KRT10, A0A1B0GVI3, for which the log2 fold change is inactive: -0.018.

Take KBTBD7 (UniProt Q8WVZ9): the log2 fold change was inactive: -0.075.

As for KDM3A (UniProt Q9Y4C1), the log2 fold change was inactive: -0.004.

As to KNL1 (UniProt Q8NG31), the log2 fold change is inactive: -0.072.

As for KIFC1 (UniProt Q9BW19), the log2 fold change is inactive: 0.054.

For KIF4A (UniProt O95239), the log2 fold change was inactive: 0.07.

On to KLHDC10 (UniProt Q6PID8), for which the log2 fold change was inactive: 0.06.

As to KIF20B isoform 2 (UniProt Q96Q89), the log2 fold change is inactive: 0.033.

As for KLHL20 (UniProt Q9Y2M5), the log2 fold change is inactive: 0.169.

As to ITSN1 (UniProt Q15811), the log2 fold change was inactive: -0.059.

For KMT5A (UniProt Q9NQR1), the log2 fold change was inactive: -0.218.

Regarding KSR2 (UniProt Q6VAB6), the log2 fold change is inactive: -0.024.

With KIN (UniProt O60870), the log2 fold change was inactive: -0.074.

As for KIAA1109 (UniProt Q2LD37), the log2 fold change is inactive: 0.054.

On to KMT2A isoform 3 (UniProt Q03164), for which the log2 fold change is inactive: 0.01.

Compound in the next assay: Cc1cn(-c2cc(NC(=O)c3ccc(C)c(Nc4nccc(-c5cccnc5)n4)c3)cc(C(F)(F)F)c2)cn1 [nilotinib]
The description is as above. The method in brief:
as §1
For KRT10, A0A1B0GVI3, the log2 fold change was inactive: -0.059.

KLHL36 (UniProt Q8N4N3): the log2 fold change is inactive: 0.125.

For KCTD1 (UniProt Q719H9), the log2 fold change is inactive: 0.111.

Turning to KBTBD7 (UniProt Q8WVZ9), the log2 fold change is inactive: 0.023.

For the target KLHDC2 (UniProt Q9Y2U9), the log2 fold change is inactive: 0.02.

On to KIF21B (UniProt O75037), for which the log2 fold change is inactive: -0.019.

For KLHL20 (UniProt Q9Y2M5), the log2 fold change was inactive: 0.125.

JMJD8 (UniProt Q96S16): the log2 fold change was inactive: 0.065.

As for KIAA0040 (UniProt Q15053), the log2 fold change was inactive: 0.084.

Compound in a further assay: Cc1nc(Nc2n[nH]c3c2CN(C(=O)N[C@H](CN(C)C)c2ccccc2)C3(C)C)c2sccc2n1
The description is as above. Put shortly: as §1
KRT10, A0A1B0GVI3: the log2 fold change was inactive: -0.042.

On to KLHL36 (UniProt Q8N4N3), for which the log2 fold change is inactive: -0.218.

For KCTD1 (UniProt Q719H9), the log2 fold change is inactive: -0.116.

Take KBTBD7 (UniProt Q8WVZ9): the log2 fold change was inactive: -0.065.

With KLHDC2 (UniProt Q9Y2U9), the log2 fold change was inactive: -0.254.

With KIF21B (UniProt O75037), the log2 fold change is inactive: 0.127.

For the target KLHL20 (UniProt Q9Y2M5), the log2 fold change was inactive: 0.054.

For the target JMJD8 (UniProt Q96S16), the log2 fold change was inactive: 0.

Regarding KIAA0040 (UniProt Q15053), the log2 fold change was inactive: -0.025.

Compound in the next assay: Cc1nc(Nc2ncc(C(=O)Nc3c(C)cccc3Cl)s2)cc(N2CCN(CCO)CC2)n1 [dasatinib]
The assay is described as above. Put shortly: as §1
Turning to KIF14 (UniProt Q15058), the log2 fold change is inactive: 0.097.

Take JOSD1 (UniProt Q15040): the log2 fold change was inactive: -0.267.

KLHL42 (UniProt Q9P2K6): the log2 fold change is inactive: -0.113.

KMT2E (UniProt Q8IZD2): the log2 fold change was inactive: -0.075.

On to KATNBL1 (UniProt Q9H079), for which the log2 fold change was inactive: -0.102.

For KDF1 (UniProt Q8NAX2), the log2 fold change is inactive: -0.147.

For KCTD1 (UniProt Q719H9), the log2 fold change was inactive: 0.113.

Take KCNH2 (UniProt Q12809): the log2 fold change was inactive: -0.209.

KBTBD7 (UniProt Q8WVZ9): the log2 fold change is inactive: -0.027.

As for KNL1 (UniProt Q8NG31), the log2 fold change is inactive: -0.055.

Take KIF4A (UniProt O95239): the log2 fold change is inactive: -0.012.

As for KDM6A (UniProt O15550), the log2 fold change is inactive: -0.277.

KIF21B (UniProt O75037): the log2 fold change was inactive: 0.018.

As for KLHL20 (UniProt Q9Y2M5), the log2 fold change is inactive: 0.014.

JMJD8 (UniProt Q96S16): the log2 fold change was inactive: -0.004.

With KIAA1755 (UniProt Q5JYT7), the log2 fold change was inactive: -0.027.

With KIF16B isoform 2 (UniProt Q96L93), the log2 fold change was inactive: 0.19.

Regarding KATNAL1 (UniProt Q9BW62), the log2 fold change is inactive: 0.242.

Take KMT2A isoform 3 (UniProt Q03164): the log2 fold change is inactive: -0.112.

Compound in a further assay: Cc1ncc(-c2ccnc(Nc3ccc(S(C)(=O)=O)cc3)n2)n1C(C)C
The assay is described as above. Put shortly:
as §1
With KRT10, A0A1B0GVI3, the log2 fold change was inactive: -0.037.

As for KLHL36 (UniProt Q8N4N3), the log2 fold change is inactive: 0.312.

Turning to KCTD1 (UniProt Q719H9), the log2 fold change was inactive: 0.048.

KBTBD7 (UniProt Q8WVZ9): the log2 fold change was inactive: -0.014.

Turning to KLHDC2 (UniProt Q9Y2U9), the log2 fold change is inactive: -0.085.

Take KIF21B (UniProt O75037): the log2 fold change is inactive: -0.06.

With KLHL20 (UniProt Q9Y2M5), the log2 fold change was inactive: -0.112.

As to JMJD8 (UniProt Q96S16), the log2 fold change was inactive: 0.142.

In the case of KIAA0040 (UniProt Q15053), the log2 fold change is inactive: 0.015.

(Values after the supplement of paper PMC10849652.)
